Measured values taken from PubChem BioAssay AID1347076 (National Center for Advancing Translational Sciences (NCATS), 2019).
“And” between values parts separate entries of the source, which are not always exact repeats. Equal entries are not always repeated. Screen size: about 400,000 compounds; about 13,000 (3.2%) were called active. Inconclusive means that the source gave no clear call. Such entries were picked first, then a sample of the others. Calls follow the shape of the dose curve; as a rule, active = well fitted cell-killing curve with a large enough effect; inconclusive = small, poorly fitted or top-dose-only effect, or effect the other way; inactive = flat fitted curve, though single readings scatter. Potencies of inconclusive entries are doubtful fits and often do not repeat.

Assay: qHTS assay for MDR1-selective chemotherapeutics: Primary screen using the drug-selected MDR subline cells KB-V1; also: nearly all actives have a fitted effect of over 60% in size
Conditions: KB-V1 MDR cells viability, CellTiter-Glo, 72 h; activity change, negative = cytotoxicity: at 46.1 µM (top of the series)
How it was run: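 KB-V1 cells (P-gp-expressing MDR subline of KB-3-1) in phenol-red-free DMEM with 10% FBS were exposed to library compounds over a concentration series for 72 h at 37 degrees C. Viability read by CellTiter-Glo luminescence; concentration-effect curves fitted after normalization.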
% is scaled to controls: 0 for no effect and ±100 for the full control effect; potency is read from the fitted curve at half-maximal effect.

SMILES | Potency | activity change, negative = cytotoxicity
Fc1ccccc1NC(=S)N1CCN(c2ccccn2)CC1 | active: 20.6 µM | 
Cc1nc2cc(OCc3cc(C(=O)NC(C)c4cn(C)nc4C)no3)ccc2s1 (centres undefined) | inconclusive: 10.3 µM [cytotoxic, partial curve] | 
COc1ccc(S(=O)(=O)NC(CC(=O)NCc2ccco2)C(C)C)cc1 (centres undefined) | inconclusive: 18.4 µM [cytotoxic, single point] | 
COc1ccccc1C(=O)C1CCCN(C(=O)c2cccnc2SC)C1 (centres undefined) | inconclusive: 14.6 µM [cytotoxic, partial curve] | 
CC1=C(C(=O)N2CCOCC2)C(c2c(C)cc(C)cc2C)NC(=S)N1 (centres undefined) | inconclusive: 20.6 µM [rising, single point] | 
CC(C)(C)c1ccc(/C=C/C(=O)N2CCOCC2)cc1 | inconclusive: 20.6 µM [cytotoxic, single point] | 
C#CC1(O)CC(C)NCC1(C)CCC#N (centres undefined) | inconclusive: 29.1 µM [rising, single point] | 
O=C(NCC1CCCO1)c1ccc(NS(=O)(=O)c2ccccc2)cc1 (centres undefined) | inconclusive: 23.1 µM [rising, single point] | 
COc1ccc(C(=O)Nc2ccc3oc(-c4cc(Cl)ccc4Cl)nc3c2)cc1Br |  | inactive: 12.4%
Cc1nn2c(-c3ccco3)ccnc2c1-c1ccc(Cl)cc1 | inconclusive: 5.8 µM [rising, full curve] | 
O=c1cc2nc(-c3ccccc3)nc(SCCOc3ccc(Cl)cc3)n2[nH]1 | inconclusive: 29.1 µM [rising, single point] | 
CC(C)Oc1ccccc1C1CC(=O)Nc2cc3c(cc21)OCO3 (centres undefined) | active: 1.3 µM | 
COC(=O)c1ccccc1S(=O)(=O)NNC(=O)c1nn(C)c(=O)c2ccccc12 |  | inactive: 15%
CCCCCCC(O)(c1ccc(OC)cc1)C(CN1CCOCC1)c1ccccc1 (centres undefined) | inconclusive: 25.9 µM [cytotoxic, single point] | 
CC(=O)c1cccc(NC(=O)CCCSc2nc(-c3ccco3)cc(C(F)(F)F)n2)c1 | inconclusive: 2.59 µM [cytotoxic, partial curve, poor fit] | 
Cn1ccnc1C1CCCCN1C(=O)c1cc(COc2ccc(F)cc2Cl)on1 (centres undefined) | inconclusive: 4.61 µM [cytotoxic, partial curve, poor fit] | 
NC(=O)c1ccsc1NC(=O)COC(=O)Cc1ccsc1 |  | inactive: 9.09%
COc1cccc(-c2noc(-c3ccc4c(c3)OCO4)n2)c1 | inconclusive: 25.9 µM [cytotoxic, single point] | 
COc1ccc2c(c1)c(=O)c(S(=O)(=O)c1ccccc1)cn2CC(=O)Nc1ccc2c(c1)OCO2 | inconclusive: 29.1 µM [rising, single point] | 
c1cnc2c(c1)ccc1cccnc12 | inconclusive: 651 nM [cytotoxic, full curve, poor fit] and inconclusive: 5.17 µM [cytotoxic, partial curve] | 
CCn1c(=N)n(CC(=O)c2ccc(OC)c(OC)c2)c2ccccc21 | active: 13 µM | 
C[C@@H]1CN([C@@H](C)CO)C(=O)c2c(c3ccccc3n2C)-c2ccccc2CO[C@H]1CN(C)C(=O)[C@H](C)c1ccccc1 | inconclusive: 16.4 µM [cytotoxic, partial curve, poor fit] | 

SMILES | Potency | activity change, negative = cytotoxicity
COc1ccc(C)cc1NC(=O)COC(=O)c1ccc2ccccc2n1 | inconclusive: 20.6 µM [rising, single point] | 
Cc1ccc(-n2nc(C)c(C(=O)Nc3cccc(C(=O)NC4CC4)c3)n2)c(C)c1 | inconclusive: 18.4 µM [cytotoxic, single point] | 
O=S(=O)(NCCc1ccccc1)c1ccc(Br)cc1 |  | inactive: 0%
COc1ccc(C(=O)Nc2c(Cl)cc(Cl)cc2C(=O)N2CCC(C)CC2)cc1 | active: 3.26 µM | 
O=C(Nc1ccccc1N1CCN(C(=O)c2ccc(Cl)cc2)CC1)c1cc(Br)ccc1Cl |  | inactive: -1.71%
COc1ccc2nc3ccccc3nc2c1N | inconclusive: 20.6 µM [cytotoxic, single point] | 
Cn1c(CN2CCN(C(=O)c3ccc(F)cc3)CC2)nc2cc([N+](=O)[O-])ccc21 | inconclusive: 14.6 µM [cytotoxic, partial curve] | 
COc1ccccc1N=Nc1nc(-c2ccccc2)c(-c2ccccc2)[nH]1 |  | inactive: 0%
CC1=C(C(=O)N(C(C)C)C(C)C)CC(CC(=O)NC2CCCCC2)C(=O)N1Cc1ccc(C(C)(C)C)cc1 (centres undefined) | inconclusive: 29.1 µM [cytotoxic, single point] | 
Cc1cc(NC(=O)CSc2nc3ccccc3c(=O)n2Cc2ccccc2)no1 |  | inactive: -9.92%
CCOc1ccc2[nH]c(SCC(=O)OC)c([N+](=O)[O-])c2c1 |  | inactive: 2.08%
CCOc1ccc(C2=Nn3c(nnc3-c3ccccc3OC)SC2)cc1 | inconclusive: 0.0092 µM [cytotoxic, full curve, poor fit] | 
COc1cccc(-c2nc(SCC(=O)NCC3CCCO3)c(-c3ccc(Cl)cc3)[nH]2)c1 (centres undefined) | inconclusive: 16.4 µM [cytotoxic, single point] | 
Cc1nc2ccc(Cl)cc2c(-c2ccccc2Cl)c1CC(=O)O |  | inactive: 19.2%
O=C(N/N=C/c1ccc(OC(F)F)cc1OC(F)F)NC1CCCCC1 |  | inconclusive: -22.1%
Cc1ccc(-c2nnc3ccc(SCC(N)=O)nn23)cc1 |  | inactive: -16.7%
O=C(Nc1ccc(F)cc1F)NC1CCN(Cc2c(F)cccc2Cl)CC1 | inconclusive: 14.6 µM [cytotoxic, partial curve] | 
COc1ccc(C2=NN(S(C)(=O)=O)C(c3cccs3)C2)cc1OC (centres undefined) | inconclusive: 13 µM [cytotoxic, single point] | 
O=C(Cn1cccc1C(=O)c1ccccc1)NCc1ccccc1 | active: 23.1 µM | 
O=C(CSc1nc2ccccc2o1)Nc1ccc(Cl)cc1 | inconclusive: 29.1 µM [rising, single point] | 
Cc1c(NS(=O)(=O)c2cc(C(=O)Nc3ccc(F)cc3Cl)ccc2Cl)c(=O)n(-c2ccccc2)n1C | inconclusive: 13 µM [cytotoxic, partial curve] | 
CC(C)NC(=O)COC(=O)c1ccccc1C(=O)c1ccccc1 |  | inactive: -28.4%

Reformatted: 2 of the compounds above
SMILES,Potency,"activity change, negative = cytotoxicity"
Cc1ccc(-n2nc(C)c(C(=O)Nc3cccc(C(=O)NC4CC4)c3)n2)c(C)c1,"inconclusive: 18.4 µM [cytotoxic, single point]",
Cc1cc(NC(=O)CSc2nc3ccccc3c(=O)n2Cc2ccccc2)no1,,inactive: -9.92%
